Assay results from patent US11608319B2, “Beta-amino acid derivative, kinase inhibitor and pharmaceutical composition containing the same, and method for performing an in vivo related application that benefits from the inhibition of a kinase” (Industrial Technology Research Institute, priority 2019, dated 2023).
Not every entry of the source has a single result; some have several. They are shown here; other results are not. There may be further records. The values listed for one entry differ, and nothing given here explains why; some may be repeats, others may stem from another dose, organism or construct than stated.

Test system: rabbit eyes with high intraocular pressure induced by magnetic beads
Experiment: Model of magnetic bead induced high intraocular pressure rabbit (intraocular pressure >30 mmHg)
Format: in vivo, New Zealand white rabbit
Details: dose 0.02%, experiment of Table 12

Which “Maximum intraocular pressure difference (mmHg)” value does the source give for `Cc1ccc(C(=O)OCc2ccc([C@@H](CN)C(=O)Nc3ccc4cnccc4c3)cc2)c(C)c1` [AR-13324, Netarsudil] here?
Its value is “about 4.3±1.4 mmHg and 4.3 ± 1.4 mmHg”.
